Earlier results, collected in patent US20240207207A1, “METHODS FOR MITIGATING AND PREVENTING PROTEOSTASIS-BASED INJURIES” (San Diego State University (SDSU) Foundation, dba San Diego …, priority 2018, published 2024).
At least one compound was matched to its structure with a doubt left.

Tested on: ATF6 arm of the unfolded protein response (UPR)
Conditions: reporter screen, earlier report; cited from earlier work

Cc1ccc(O)c(NC(=O)CCc2ccccc2)c1 [compound 147]
selective induction of the ATF6 arm of the UPR: selectively induce only the ATF6 arm of the unfolded protein response (UPR)
